Experimental data from publication PMC9712993.

Assays:
[1] = tested on: CTD alone (Homo sapiens); assay: EMSA; settings: similar to RGG box alone; 10 mM Tris-HCl, 100 mM KCl, 5 mM Mg(OAc)2, pH 7.4, BSA, on ice 1 h; mRNA EMSA 0.4 pmol RNA + 20 pmol protein in 18 ul; recombinant protein; protein details: N-MBP, C-His6; label: 5' FAM
[2] = tested on: RGG box alone (Homo sapiens); assay: EMSA; settings: little to no binding; 10 mM Tris-HCl, 100 mM KCl, 5 mM Mg(OAc)2, pH 7.4, BSA, on ice 1 h; mRNA EMSA 0.4 pmol RNA + 20 pmol protein in 18 ul; recombinant …; protein details: N-MBP, C-His6; label: 5' FAM
[3] = tested on: CTD alone (Homo sapiens); assay: fluorescence polarization; settings: 10 mM Tris-HCl, 100 mM KCl, 5 mM Mg(OAc)2, pH 7.4, BSA, on ice 1 h; mRNA EMSA 0.4 pmol RNA + 20 pmol protein in 18 ul; recombinant protein; protein details: N-MBP, C-His6; label: 5' FAM
[4] = tested on: RGG box alone (Homo sapiens); assay: fluorescence polarization; settings: 10 mM Tris-HCl, 100 mM KCl, 5 mM Mg(OAc)2, pH 7.4, BSA, on ice 1 h; mRNA EMSA 0.4 pmol RNA + 20 pmol protein in 18 ul; recombinant protein; protein details: N-MBP, C-His6; label: 5' FAM

Measured: binding result

UUUUUUUUUUUUUUUUUU [(U)18]
no binding: all assays above

The exact form of at least one protein or probe is not confirmed. A negative result means that nothing was seen under these conditions. For some of these results: At least one verdict was read from the data and is not stated in words by the source.
